± gives the standard deviation of the averaged measurements. The entries are a selection whose mix differs from that of the whole data set.
Legend:
Assay in all cases: NP40-soluble protein abundance relative to vehicle (solubility fold change) (ratio); higher = more soluble protein in presence of ATP
[1] = molecular target: T1, UniProt Q8WYQ5 and related entries
T1 sequence (whole entry): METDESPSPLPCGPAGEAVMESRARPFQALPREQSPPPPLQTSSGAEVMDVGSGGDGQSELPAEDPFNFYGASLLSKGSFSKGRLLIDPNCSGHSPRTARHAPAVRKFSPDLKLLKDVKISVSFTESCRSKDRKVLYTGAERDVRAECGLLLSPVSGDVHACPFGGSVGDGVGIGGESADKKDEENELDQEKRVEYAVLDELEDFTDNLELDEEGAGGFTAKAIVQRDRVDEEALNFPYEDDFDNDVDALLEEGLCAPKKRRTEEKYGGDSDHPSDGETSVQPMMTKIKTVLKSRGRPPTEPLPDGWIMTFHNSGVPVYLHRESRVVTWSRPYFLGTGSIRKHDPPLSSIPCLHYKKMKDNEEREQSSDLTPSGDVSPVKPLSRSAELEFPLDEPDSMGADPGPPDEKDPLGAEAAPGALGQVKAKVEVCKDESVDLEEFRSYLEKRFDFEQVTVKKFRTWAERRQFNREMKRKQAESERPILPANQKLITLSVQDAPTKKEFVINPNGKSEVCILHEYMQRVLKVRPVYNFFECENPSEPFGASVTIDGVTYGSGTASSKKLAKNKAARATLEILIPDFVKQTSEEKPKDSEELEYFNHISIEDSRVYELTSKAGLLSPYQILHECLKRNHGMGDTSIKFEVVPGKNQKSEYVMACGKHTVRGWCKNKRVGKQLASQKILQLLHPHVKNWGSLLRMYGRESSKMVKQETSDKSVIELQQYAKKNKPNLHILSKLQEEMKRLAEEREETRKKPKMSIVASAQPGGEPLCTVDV
Outline: (§1)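 Data come from three independent experiments in which Dounce-homogenised Jurkat crude lysate was treated at eight concentrations from 0.1 to 10 mM. Treatment ran 10 min at room temperature and then 3 min at 37 °C, after which 0.8% NP40 and benzonase were added for 60 min at 4 °C before ultracentrifugation. The supernatant underwent TMT labelling and LC-MS/MS, and vsn-normalised intensities were expressed as fold change against the detergent-processed vehicle in each replicate.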

[2] = molecular target: T2, UniProt Q92896 and related entries
T2 sequence (whole entry): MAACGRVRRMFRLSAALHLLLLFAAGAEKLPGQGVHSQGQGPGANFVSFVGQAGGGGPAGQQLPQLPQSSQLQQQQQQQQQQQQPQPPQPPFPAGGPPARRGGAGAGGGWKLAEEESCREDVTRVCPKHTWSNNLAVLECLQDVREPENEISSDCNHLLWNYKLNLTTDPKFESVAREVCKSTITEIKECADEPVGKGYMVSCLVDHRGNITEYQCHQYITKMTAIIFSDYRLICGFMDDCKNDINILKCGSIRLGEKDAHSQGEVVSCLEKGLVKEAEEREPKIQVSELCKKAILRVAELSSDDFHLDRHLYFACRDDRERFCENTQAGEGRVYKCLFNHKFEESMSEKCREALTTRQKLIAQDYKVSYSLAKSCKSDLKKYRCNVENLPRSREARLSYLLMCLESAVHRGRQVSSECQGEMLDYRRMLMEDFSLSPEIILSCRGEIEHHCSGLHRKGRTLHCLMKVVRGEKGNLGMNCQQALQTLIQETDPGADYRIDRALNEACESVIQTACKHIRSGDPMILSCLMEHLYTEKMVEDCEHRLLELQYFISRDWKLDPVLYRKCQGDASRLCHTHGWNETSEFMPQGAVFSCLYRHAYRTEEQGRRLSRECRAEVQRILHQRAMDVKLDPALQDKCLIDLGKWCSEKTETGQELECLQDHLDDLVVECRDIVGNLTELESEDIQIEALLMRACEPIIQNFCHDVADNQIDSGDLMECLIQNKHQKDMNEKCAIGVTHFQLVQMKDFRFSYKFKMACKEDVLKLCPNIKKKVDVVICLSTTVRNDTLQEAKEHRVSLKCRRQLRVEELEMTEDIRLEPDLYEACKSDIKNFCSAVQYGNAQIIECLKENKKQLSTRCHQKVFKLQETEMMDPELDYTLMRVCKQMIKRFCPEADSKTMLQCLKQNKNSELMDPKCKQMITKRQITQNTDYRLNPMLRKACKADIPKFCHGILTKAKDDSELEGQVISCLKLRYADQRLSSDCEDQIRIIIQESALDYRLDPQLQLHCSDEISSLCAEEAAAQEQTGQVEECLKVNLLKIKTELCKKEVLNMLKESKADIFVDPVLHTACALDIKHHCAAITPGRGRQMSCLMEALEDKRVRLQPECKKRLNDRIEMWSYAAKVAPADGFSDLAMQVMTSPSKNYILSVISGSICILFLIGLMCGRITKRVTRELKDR
Outline: as §1

[3] = molecular target: T3, UniProt Q969V3 and related entries
T3 sequence (whole entry): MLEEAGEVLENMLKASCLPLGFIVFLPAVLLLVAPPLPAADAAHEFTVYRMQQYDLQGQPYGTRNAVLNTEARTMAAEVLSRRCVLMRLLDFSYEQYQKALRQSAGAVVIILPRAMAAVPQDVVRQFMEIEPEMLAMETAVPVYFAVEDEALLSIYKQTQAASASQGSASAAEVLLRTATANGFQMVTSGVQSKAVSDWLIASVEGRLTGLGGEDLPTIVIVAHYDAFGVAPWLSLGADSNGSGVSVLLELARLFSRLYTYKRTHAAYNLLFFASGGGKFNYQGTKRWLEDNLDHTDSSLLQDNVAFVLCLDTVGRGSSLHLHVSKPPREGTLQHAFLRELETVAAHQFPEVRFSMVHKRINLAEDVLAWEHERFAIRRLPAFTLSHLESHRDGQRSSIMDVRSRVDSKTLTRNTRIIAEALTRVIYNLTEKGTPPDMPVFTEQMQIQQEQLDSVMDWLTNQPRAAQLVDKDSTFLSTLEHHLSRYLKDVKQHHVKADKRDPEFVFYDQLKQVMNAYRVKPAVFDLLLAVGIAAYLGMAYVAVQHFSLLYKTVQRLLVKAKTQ
Outline: as §1

[4] = molecular target: T4, UniProt Q96AX2 and related entries
T4 sequence (whole entry): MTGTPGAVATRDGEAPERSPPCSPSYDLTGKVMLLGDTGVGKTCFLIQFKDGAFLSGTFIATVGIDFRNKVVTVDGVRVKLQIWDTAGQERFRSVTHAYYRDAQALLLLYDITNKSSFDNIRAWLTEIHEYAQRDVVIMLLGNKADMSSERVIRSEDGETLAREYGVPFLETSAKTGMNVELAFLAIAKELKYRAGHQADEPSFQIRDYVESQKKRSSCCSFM
Outline: as §1

[5] = molecular target: T5, UniProt Q96AY2 and related entries
T5 sequence (whole entry): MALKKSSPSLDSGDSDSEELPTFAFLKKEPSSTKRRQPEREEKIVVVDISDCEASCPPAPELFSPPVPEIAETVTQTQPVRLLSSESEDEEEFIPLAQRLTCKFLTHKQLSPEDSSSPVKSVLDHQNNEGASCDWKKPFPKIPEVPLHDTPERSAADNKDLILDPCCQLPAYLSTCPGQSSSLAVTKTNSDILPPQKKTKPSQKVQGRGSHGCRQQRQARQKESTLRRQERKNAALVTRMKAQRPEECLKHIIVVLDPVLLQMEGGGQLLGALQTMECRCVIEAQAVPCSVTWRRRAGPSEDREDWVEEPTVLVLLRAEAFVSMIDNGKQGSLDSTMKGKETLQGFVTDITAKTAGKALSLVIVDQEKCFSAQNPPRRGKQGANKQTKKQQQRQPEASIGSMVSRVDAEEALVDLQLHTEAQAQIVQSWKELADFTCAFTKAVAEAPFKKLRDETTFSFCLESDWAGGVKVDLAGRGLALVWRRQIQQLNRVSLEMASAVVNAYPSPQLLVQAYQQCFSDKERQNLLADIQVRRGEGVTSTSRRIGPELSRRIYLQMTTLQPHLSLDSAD
Outline: as §1

[6] = molecular target: T6, WASF1 (UniProt Q92558)
T6 sequence (whole entry): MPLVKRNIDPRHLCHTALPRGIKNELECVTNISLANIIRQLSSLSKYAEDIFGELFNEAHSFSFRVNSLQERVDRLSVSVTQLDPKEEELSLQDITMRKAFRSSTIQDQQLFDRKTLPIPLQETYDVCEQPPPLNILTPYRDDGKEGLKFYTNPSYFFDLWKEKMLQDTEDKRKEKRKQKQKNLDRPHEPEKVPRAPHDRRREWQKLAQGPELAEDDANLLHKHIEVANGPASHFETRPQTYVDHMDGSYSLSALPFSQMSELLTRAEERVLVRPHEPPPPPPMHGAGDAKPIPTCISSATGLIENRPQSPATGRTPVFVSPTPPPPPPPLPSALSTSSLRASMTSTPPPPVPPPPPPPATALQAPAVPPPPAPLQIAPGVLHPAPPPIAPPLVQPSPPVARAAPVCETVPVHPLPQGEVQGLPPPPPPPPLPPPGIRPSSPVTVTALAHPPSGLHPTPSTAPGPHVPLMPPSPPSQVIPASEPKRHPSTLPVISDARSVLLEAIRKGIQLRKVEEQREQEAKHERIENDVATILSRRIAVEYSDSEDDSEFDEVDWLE
Outline: as §1

Nc1ncnc2c1ncn2[C@@H]1O[C@H](COP(=O)(O)OP(=O)(O)OP(=O)(O)O)[C@@H](O)[C@H]1O [adenosine triphosphate]
NP40-soluble protein abundance ([1]; concentration: 6mM): 1.33 ± 0.092 | NP40-soluble protein abundance ([1]; concentration: 8mM): 1.3 ± 0.075 | NP40-soluble protein abundance ([1]; concentration: 10mM): 1.36 ± 0.095 | NP40-soluble protein abundance ([2]; concentration: 1mM): 0.967 ± 0.053 | NP40-soluble protein abundance ([2]; concentration: 2mM): 0.969 ± 0.034 | NP40-soluble protein abundance ([2]; concentration: 4mM): 0.947 ± 0.021 | NP40-soluble protein abundance ([2]; concentration: 6mM): 0.989 ± 0.036 | NP40-soluble protein abundance ([2]; concentration: 8mM): 0.9241 ± 0.0058 | NP40-soluble protein abundance ([2]; concentration: 10mM): 0.937 ± 0.01 | NP40-soluble protein abundance ([3]; concentration: 1mM): 1.02 ± 0.094 | NP40-soluble protein abundance ([3]; concentration: 2mM): 1.02 ± 0.074 | NP40-soluble protein abundance ([3]; concentration: 4mM): 1.03 ± 0.072 | NP40-soluble protein abundance ([3]; concentration: 6mM): 0.953 ± 0.085 | NP40-soluble protein abundance ([3]; concentration: 8mM): 1.02 ± 0.052 | NP40-soluble protein abundance ([3]; concentration: 10mM): 1.03 ± 0.055 | NP40-soluble protein abundance ([4]; concentration: 1mM): 0.994 ± 0.072 | NP40-soluble protein abundance ([4]; concentration: 2mM): 0.985 ± 0.1 | NP40-soluble protein abundance ([4]; concentration: 4mM): 0.965 ± 0.14 | NP40-soluble protein abundance ([4]; concentration: 6mM): 0.928 ± 0.12 | NP40-soluble protein abundance ([4]; concentration: 8mM): 0.989 ± 0.063 | NP40-soluble protein abundance ([4]; concentration: 10mM): 0.978 ± 0.089 | NP40-soluble protein abundance ([5]; concentration: 1mM): 1.11 ± 0.18 | NP40-soluble protein abundance ([5]; concentration: 2mM): 1.05 ± 0.093 | NP40-soluble protein abundance ([5]; concentration: 4mM): 1.02 ± 0.02 | NP40-soluble protein abundance ([5]; concentration: 6mM): 0.893 ± 0.084 | NP40-soluble protein abundance ([5]; concentration: 8mM): 0.999 ± 0.011 | NP40-soluble protein abundance ([5]; concentration: 10mM): 1.03 ± 0.046 | NP40-soluble protein abundance ([6]; concentration: 1mM): 0.94 ± 0.068 | NP40-soluble protein abundance ([6]; concentration: 2mM): 0.97 ± 0.042 | NP40-soluble protein abundance ([6]; concentration: 4mM): 0.971 ± 0.032 | NP40-soluble protein abundance ([6]; concentration: 6mM): 0.998 ± 0.044 | NP40-soluble protein abundance ([6]; concentration: 8mM): 0.949 ± 0.033 | NP40-soluble protein abundance ([6]; concentration: 10mM): 0.96 ± 0.015
